Results are given in words; binding and its absence hold for the method and conditions named. Some binding calls cover weakened binding; strength is not graded here.
Target: CoREST1/RCOR1 (human (endogenous in A375)) (UniProt Q9UKL0)
Test: ChIP-re-ChIP; formaldehyde-crosslinked chromatin sonicated to 300~500 bp; first ChIP eluted (1 mM EDTA, 1% SDS, 10 mM DTT, 65 °C), diluted and re-precipitated with the second antibody; read out by PCR at proximal promoters of RNA processing genes; done in both orders (CoREST-MYC and MYC-CoREST)

Sequences of proteins named here, by UniProt entry; tags and fusion partners are left off.
UniProt P01106: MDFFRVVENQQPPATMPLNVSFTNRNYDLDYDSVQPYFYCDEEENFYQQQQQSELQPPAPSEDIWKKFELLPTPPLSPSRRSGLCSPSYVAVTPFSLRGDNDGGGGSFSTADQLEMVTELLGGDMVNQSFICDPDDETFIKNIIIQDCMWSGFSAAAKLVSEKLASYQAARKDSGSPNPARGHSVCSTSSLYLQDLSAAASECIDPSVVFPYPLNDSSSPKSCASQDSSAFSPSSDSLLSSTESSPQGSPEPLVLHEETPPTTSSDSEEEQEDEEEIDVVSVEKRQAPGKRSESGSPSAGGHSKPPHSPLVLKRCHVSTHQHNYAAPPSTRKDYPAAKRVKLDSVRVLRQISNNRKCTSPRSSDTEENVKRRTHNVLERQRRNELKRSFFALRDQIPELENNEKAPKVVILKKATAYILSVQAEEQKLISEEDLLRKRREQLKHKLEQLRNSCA

c-MYC (from UniProt P01106 1-454)
binding: binds

From paper PMC12607843
